Results from patent US20110223202A1 (priority 2007, published 2011).

Assay: general procedure: Fmoc solid-phase peptide synthesis; Fmoc-Arg(Pbf)-Rink Amide-MBHA resin; benzotriazol-1-yl-oxytripyrrolidinophosphonium hexafluorophosphate with N-methyl
Conditions: whole synthesis, analytical reverse phase HPLC

Sequence: GGGRRRRRRYGRKKRRQRRR
- final HPLC purity: about 95%

End groups of sequences in plain letters are not given here.
